System: mice
Conditions: mouse, in vivo
Protocol: Physical dependency liability was evaluated in mice by the procedure of Saelens, et al., Arch. Int. Pharmacodynam, 190:213-218, 1971. In this procedure, mice are administered increasing doses of a test compound at intervals on two consecutive days. The last dosage on the second day is followed by intraperitoneal injection of the morphine antagonist, naloxone, at a dosage of 100 mg/kg, and the mice are observed for characteristic jumping behaviour indicative of opiate withdrawals or morphine antagonism. […].

For `CN1CC[C@]23c4c5ccc(O)c4O[C@H]2[C@@H](O)C=C[C@H]3[C@H]1C5.O=S(=O)(O)O` [morphine sulfate], the “mice jumping after naloxone” value was 5 of 9.

From patent US4265912A, “Glaucine lactate salts” (priority 1979, dated 1981)
